Assay results taken from publication PMC10889563, “The Multienzyme Complex Nature of Dehydroepiandrosterone Sulfate Biosynthesis” (International Journal of Molecular Sciences, 2024).
Results are given in words; binding and its absence hold for the method and conditions named. In cells and extracts the contact can be indirect. These calls come from enrichment with a bait or labelling near it, and not all partners need be listed.

The chains behind the UniProt entries cited, without tags or fusion partners.
UniProt P52847: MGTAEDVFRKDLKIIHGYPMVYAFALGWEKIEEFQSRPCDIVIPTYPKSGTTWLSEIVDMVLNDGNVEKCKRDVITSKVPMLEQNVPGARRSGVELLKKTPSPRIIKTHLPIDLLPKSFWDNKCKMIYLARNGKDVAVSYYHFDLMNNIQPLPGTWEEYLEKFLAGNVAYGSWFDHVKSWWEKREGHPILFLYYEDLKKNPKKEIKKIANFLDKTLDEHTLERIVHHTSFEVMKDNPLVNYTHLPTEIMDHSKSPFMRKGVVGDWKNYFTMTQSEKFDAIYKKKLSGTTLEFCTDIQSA
UniProt P50237: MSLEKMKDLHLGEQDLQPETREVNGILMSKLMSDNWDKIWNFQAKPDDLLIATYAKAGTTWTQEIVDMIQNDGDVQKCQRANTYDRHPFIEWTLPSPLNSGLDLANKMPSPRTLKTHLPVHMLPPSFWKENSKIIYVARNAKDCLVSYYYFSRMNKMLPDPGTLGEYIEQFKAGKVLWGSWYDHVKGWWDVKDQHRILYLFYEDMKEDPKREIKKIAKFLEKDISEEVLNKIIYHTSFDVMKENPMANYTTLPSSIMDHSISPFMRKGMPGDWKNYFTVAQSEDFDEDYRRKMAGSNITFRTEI
UniProt P30839: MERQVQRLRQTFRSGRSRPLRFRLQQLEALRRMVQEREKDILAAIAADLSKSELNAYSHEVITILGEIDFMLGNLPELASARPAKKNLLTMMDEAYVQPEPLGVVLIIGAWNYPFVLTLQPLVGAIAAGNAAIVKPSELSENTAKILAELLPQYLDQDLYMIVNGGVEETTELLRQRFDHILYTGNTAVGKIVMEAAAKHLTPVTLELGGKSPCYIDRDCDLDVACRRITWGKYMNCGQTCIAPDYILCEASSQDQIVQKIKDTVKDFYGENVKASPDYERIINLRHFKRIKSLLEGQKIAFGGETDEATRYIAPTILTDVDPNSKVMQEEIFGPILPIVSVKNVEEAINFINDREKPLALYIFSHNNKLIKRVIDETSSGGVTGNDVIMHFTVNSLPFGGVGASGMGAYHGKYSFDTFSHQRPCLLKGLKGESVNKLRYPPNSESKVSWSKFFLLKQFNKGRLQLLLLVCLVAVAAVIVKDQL
UniProt P17988: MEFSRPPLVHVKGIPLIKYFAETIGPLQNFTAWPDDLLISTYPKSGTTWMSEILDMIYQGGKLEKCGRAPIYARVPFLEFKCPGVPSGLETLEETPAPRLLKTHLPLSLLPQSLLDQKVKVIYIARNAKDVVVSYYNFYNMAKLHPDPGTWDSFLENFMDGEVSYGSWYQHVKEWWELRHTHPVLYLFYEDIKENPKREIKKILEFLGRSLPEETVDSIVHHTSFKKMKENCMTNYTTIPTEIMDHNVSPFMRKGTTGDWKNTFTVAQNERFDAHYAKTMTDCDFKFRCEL

T1: sulfotransferase SULT1E1 (human, UniProt P49888 1-294)
T1 construct: cytosolic sulfotransferase SULT1E1, human, recombinant; The oligomeric state in the assay is not known to the authors; source: E. coli DH5α, purified (Ni-NTA agarose, hydroxyapatite)
T1 sequence (looked up): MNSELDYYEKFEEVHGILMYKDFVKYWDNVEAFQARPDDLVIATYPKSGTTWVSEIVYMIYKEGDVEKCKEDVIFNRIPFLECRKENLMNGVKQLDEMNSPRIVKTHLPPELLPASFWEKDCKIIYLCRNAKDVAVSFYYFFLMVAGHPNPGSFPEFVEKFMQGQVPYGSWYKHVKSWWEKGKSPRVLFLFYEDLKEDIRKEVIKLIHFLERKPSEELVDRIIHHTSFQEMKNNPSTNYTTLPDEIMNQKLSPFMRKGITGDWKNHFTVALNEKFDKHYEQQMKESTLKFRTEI


Target: T1, sulfotransferase SULT1E1
Assay: affinity purification with mass spectrometry; recombinant SULT1E1 or SULT2A1 covalently immobilised on CNBr-Sepharose 4B; rat liver tissue lysate; HBS-P buffer (10 mM HEPES, 150 mM NaCl, 0.005% Tween-20, pH 7.4), PAPS-free; elution with 4% formic acid; LC-MS/MS; sorbent without protein as control; only the target purified

| Molecule | binding |
| --- | --- |
| Sulfotransferase family cytosolic 1B member 1 (from UniProt P52847 1-299) | binds |
| Sulfotransferase 1C1 (from UniProt P50237 1-304) | binds |
| Fatty aldehyde dehydrogenase (from UniProt P30839 1-484) | binds |
| Sulfotransferase 1A1 (from UniProt P17988 1-291) | binds |
| Sarcosine dehydrogenase, mitochondrial (protein, UniProt Q64380 23-919) LGLQPLAREARPTTEKSVPYQCTLKEEAQGASVVPQGPSQPLPSTANVVVIGGGSLGCQTLYHLAKLGVGGVVLLERERLTSGTTWHTAGLLWQLRPSDVEVELLAHTRQVVSHDLEEETGLHTGWIQNGGLFIASNQQRLDEYKRLMSLGKAYGIESHVLSPAETKDLYPLMNVDDLYGTLYVPRDGTMDPAGTCTTLTRAAVARGAQVIENCAVTGIRVRTDDFGVRRVTAVETQHGSIQTPCVVNCAGVWASSVGRMAGVKVPLVAMHHAYVVTERIEGIQNMPNVRDHDASVYLRLQGDALSVGGYEANPIFWDEVSDKFAFGLFDLDWDVFTQHIEGAINRVPVLEKTGIKSTVCGPESFTPDHKPLMGEAPELRGFFLGCGFNSAGMMLGGGCGQELAHWIVHGRPEKDMYSYDIRRFHHSLTDHPRWIRERSHESYAKNYSVVFPHDEPLAGRNMRRDPLHEELLGQGCVFQERQGWERPGWFNPQETAQVLDYDYYGAYGHQAHKDYAYSRLLGDEYTFDFPPHHCVIQKECLACRTAAAVFNMSYFGKFYLLGADARKAPDWLFSADVNRPPGSTVYTCMLNQRGGTESDLTVSCLAPGAQASPLAPAFEGDGYYLAVGGAVAQHNWSHINTVLQDQEFRCQLMDCSEDLGMLSIQGPASRDILQDVLDADLSNEAFPFSTHQLVRAAGHLVRAIRLSFVGELGWELHVPQASCLPVYRAVMAAGAKHGLVNAGYRAIDSLSIEKGYRHWHADLRSDDSPLEAGLAFTCKLKTSVPFLGREALEKQRATGLRRRLVCLTVEEEVPMFGLEAIWRNGQVVGHVRRADFGFTVNKTIAYGYIRDPSGGPVSLDFVKNGDYALERMGVTYAAQVHLKSPFDPDNKRVKGIY | binds |
| Argininosuccinate synthase (protein, UniProt P09034 1-412) MSSKGSVVLAYSGGLDTSCILVWLKEQGYDVIAYLANIGQKEDFEEARKKALKLGAKKVFIEDVSKEFVEEFIWPAVQSSALYEDRYLLGTSLARPCIARKQVEIAQREGAKYVSHGATGKGNDQVRFELTCYSLAPQIKVIAPWRMPEFYNRFKGRNDLMEYAKQHGIPIPVTPKSPWSMDENLMHISYEAGILENPKNQAPPGLYTKTQDPAKAPNTPDVLEIEFKKGVPVKVTNVKDGTTHSTSLDLFMYLNEVAGKHGVGRIDIVENRFIGMKSRGIYETPAGTILYHAHLDIEAFTMDREVRKIKQGLGLKFAELVYTGFWHSPECEFVRHCIDKSQERVEGKVQVSVFKGQVYILGRESPLSLYNEELVSMNVQGDYEPIDATGFININSLRLKEYHRLQSKVTAK | binds |
| Fructose-bisphosphate aldolase B (protein, UniProt P00884 1-364) MAHRFPALTSEQKKELSEIAQRIVANGKGILAADESVGTMGNRLQRIKVENTEENRRQFRELLFSVDNSISQSIGGVILFHETLYQKDSQGKLFRNILKEKGIVVGIKLDQGGAPLAGTNKETTIQGLDGLSERCAQYKKDGVDFGKWRAVLRISDQCPSSLAIQENANALARYASICQQNGLVPIVEPEVLPDGDHDLEHCQYVSEKVLAAVYKALNDHHVYLEGTLLKPNMLTAGHACTKKYTPEQVAMATVTALHRTVPAAVPSICFLSGGMSEEDATLNLNAIYRCPLPRPWKLSFSYGRALQASALAAWGGKAANKKATQEAFMKRAVANCQAAQGQYVHTGSSGAASTQSLFTASYTY | binds |
| D-beta-hydroxybutyrate dehydrogenase, mitochondrial (protein, UniProt P29147 47-343) TSQADAASGKAVLVTGCDSGFGFSLAKHLHSKGFLVFAGCLLKDKGDAGVRELDSLKSDRLRTIQLNVCNSEEVEKAVETVRSGLKDPEKGMWGLVNNAGISTFGEVEFTSMETYKEVAEVNLWGTVRTTKSFLPLLRRAKGRVVNISSMLGRMANPARSPYCITKFGVEAFSDCLRYEMHPLGVKVSVVEPGNFIAATSLYSPERIQAIAKKMWDELPEVVRKDYGKKYFDEKIAKMETYCNSGSTDTSSVINAVTHALTAATPYTRYHPMDYYWWLRMQVMTHFPGAISDKIYIH | binds |
| ATP-dependent 6-phosphofructokinase, liver type (protein, UniProt P30835 1-780) MATVDLEKLRMSGAGKAIGVLTSGGDAQGMNAAVRAVTRMGIYVGAKVFLIYEGYEGLVEGGENIKPANWLSVSNIIQLGGTIIGSARCKAFTTREGRLAAAYNLLQHGITNLCVIGGDGSLTGANIFRNEWGSLLEELVKEGKISESTAQNYAHLSIAGLVGSIDNDFCGTDMTIGTDSALHRIMEVIDAITTTAQSHQRTFVLEVMGRHCGYLALVSALASGADWLFIPEAPPEDGWENFMCERLGETRSRGSRLNIIIIAEGAIDRHGKPISSSYVKDLVVQRLGFDTRVTVLGHVQRGGTPSAFDRVLSSKMGMEAVMALLEATPDTPACVVSLSGNQSVRLPLMECVQVTKDVQKAMDEKRFDEAIQLRGRSFENNWKIYKLLAHQKVSKEKSNFSLAILNVGAPAAGMNAAVRSAVRTGISEGHTVYVVHDGFEGLAKGQVQEVGWHDVAGWLGRGGSMLGTKRTLPKPHLEAIVENLRTYNIHALLVIGGFEAYEGVLQLVEARGRYEELCIVMCVIPATISNNVPGTDFSLGSDTAVNAAMESCDRIKQSASGTKRRVFIVETMGGYCGYLATVTGIAVGADAAYVFEDPFNIHDLKANVEHMTEKMKTDIQRGLVLRNEKCHEHYTTEFLYNLYSSEGRGVFDCRTNVLGHLQQGGAPTPFDRNYGTKLGVKAMLWMSEKLRDVYRKGRVFANAPDSACVIGLRKKVVAFSSVTELKKETDFEHRMPREQWWLNLRLMLKMLAHYRISMADYVSGELEHVTRRTLSIDKGF | binds |
